Assay results from PubChem BioAssay AID504834 (National Center for Advancing Translational Sciences (NCATS), 2011).
Out of some 320,000 compounds screened, about 22,000 (6.9%) were called active. The inconclusive results got no clear call from the source; some entries with a clear call stand among them for comparison. Calls follow the shape of the dose curve; as a rule, active = well fitted inhibition curve with a large enough effect; inconclusive = small, poorly fitted or top-dose-only effect, or another doubt; inactive = no such curve, though single readings can be large or run the other way. Potencies beside an inconclusive call are fits to weak or partial responses and may not hold up.

assay: Primary qHTS for delayed death inhibitors of the malarial parasite plastid, 96 hour incubation; conditions: P. falciparum luciferase reporter growth; series mostly up to 28.7 µM; activity change, negative = inhibition: at the top concentration
How it was run: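 Parasite growth measured via integrated firefly luciferase reporter in P. falciparum. Infected erythrocytes at 2% hematocrit, 0.05% parasitemia final were treated 96 hours at 37 C under 5% CO2, and luminescence was read.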
% is scaled to controls: 0 for no effect and ±100 for the full control effect; potency is read from the fitted curve at half-maximal effect.

Row | SMILES | activity change, negative = inhibition | Potency
1 | Cc1ccc(Sc2sc(=O)n(C)c2S(=O)(=O)c2ccc(C)cc2)cc1 | inactive: -2.21% | –
2 | COc1cccc2sc(N3CCN(C(=O)c4ccco4)CC3)nc12 | – | inconclusive: 18.5 µM [inhibitor, single point]
3 | COC(=O)c1sc(NC(=O)CC(C)C)c(C(=O)OC)c1C | – | inconclusive: 10.4 µM [inhibitor, single point]
4 | CCC(C)N(C(=O)c1csnn1)C(C(=O)NCc1ccc(F)cc1)c1ccccc1F (stereo not drawn) | inactive: 2% | –
5 | Cc1ccc(C(=O)Oc2ccccc2N2C(=O)C3C4CCC(C4)C3C2=O)cc1 (stereo not drawn) | inactive: 19.9% | –
6 | CC(C)(C)CC(C)(C)NCC(O)COCCOc1ccc(Br)cc1 (stereo not drawn) | – | inconclusive: 13.1 µM [inhibitor, single point]
7 | COc1ccccc1NC(=O)N1CCc2[nH]c3ccc(Cl)cc3c2C1 | – | inconclusive: 4.15 µM [inhibitor, single point]
8 | COc1ccc(OC)c(NC(=O)Cn2cc(C=O)c3ccccc32)c1 | – | inconclusive: 9.28 µM [inhibitor, single point]
9 | CCCCn1c(N)c(N(CC(C)C)C(=O)c2ccc(Br)o2)c(=O)[nH]c1=O | – | inconclusive: 18.5 µM [inhibitor, partial curve, poor fit]
10 | CC(C)CNc1nnnc2c1sc1nc(N3CCOCC3)c3c(c12)CC(C)(C)SC3 | – | inconclusive: 0.208 µM [inhibitor, full curve, poor fit]
11 | Cc1nnc(NC(=O)c2cc3n(n2)C(C(F)(F)F)CC(C2CC2)N3)s1 (stereo not drawn) | inactive: -95.1% | –
12 | CN1CCN(c2ccc(Cl)cc2NC(=O)c2cc(=O)[nH]c3ccccc23)CC1 | – | inconclusive: 10.4 µM [inhibitor, single point]
13 | CCCCn1c(N)c(N(CCOC)C(=O)c2ccc(-c3ccc(C(C)=O)cc3)o2)c(=O)[nH]c1=O | – | inconclusive: 18.5 µM [inhibitor, single point]
14 | O=C(N/N=C/C=C/c1ccccc1[N+](=O)[O-])c1cccnc1 | – | inconclusive: 9.28 µM [inhibitor, partial curve]
15 | COc1ccc(N2C(=O)C(OC(C)=O)C2c2ccc(C)cc2)cc1 (stereo not drawn) | inactive: 20.8% | –
16 | Cc1cc2oc(C(=O)Nc3ccc(S(=O)(=O)Nc4ncccn4)cc3)cc(=O)c2cc1Cl | inactive: 2.21% | –
17 | CCC(C(=O)NC1CC1)n1nc(C)c2c(C)n(-c3ccc(C)cc3)nc2c1=O (stereo not drawn) | – | inconclusive: 18.5 µM [inhibitor, single point]
18 | O=C(c1ccc(CNS(=O)(=O)c2ccc(Br)cc2)cc1)N1CCC2(CC1)OCCO2 | – | inconclusive: 9.28 µM [inhibitor, single point]
19 | CSc1ccc(C(=O)C2CCCN(C(=O)c3ccc4c(c3)no[n+]4[O-])C2)cc1 (stereo not drawn) | inactive: -1.94% | –
20 | CCCc1cc(=O)oc2cc(OCc3cccc(OC)c3)c(Cl)cc12 | inactive: -15% | –
21 | Cc1ccc(S(=O)(=O)N2CCN(C(=O)c3ccc(N4CCCCC4)c([N+](=O)[O-])c3)CC2)cc1 | – | active: 10.4 µM
22 | CCOC(=O)CNS(=O)(=O)c1cc(-c2nnc(Nc3ccc4c(c3)OCO4)c3ccccc23)ccc1C | – | inconclusive: 0.738 µM [inhibitor, full curve, poor fit]

Row | SMILES | activity change, negative = inhibition | Potency
23 | Cc1ccc(-n2nnnc2SCC(=O)NCC2(N3CCOCC3)CCCCC2)cc1 | – | inconclusive: 13.1 µM [inhibitor, partial curve, poor fit]
24 | Cn1c(O)c(C=NCCCN2CCCC2=O)c(=O)n(C)c1=O | – | inconclusive: 13.1 µM [inhibitor, partial curve]
25 | Cc1cc(Cl)ccc1C(=O)C1CCCN(C(=O)CCn2cncn2)C1 (stereo not drawn) | – | inconclusive: 13.1 µM [inhibitor, partial curve, poor fit]
26 | COc1cccc(CNC(=O)c2ccc(C)c(S(=O)(=O)N3CCCCC3)c2)c1 | – | inconclusive: 11.7 µM [inhibitor, single point]
27 | Clc1ccc2c(N/N=C/c3cccnc3)ccnc2c1 | – | active: 0.828 µM
28 | COC(=O)c1cc2c(ccn2-c2ccc(F)cc2)n1Cc1cccc(OC)c1 | – | inconclusive: 4.15 µM [inhibitor, partial curve, poor fit]
29 | O=C1NC(=O)N(c2ccc3c(c2)OCO3)C(=O)/C1=C/c1ccsc1 | inactive: 1.46% | –
30 | O=C(c1ccco1)N1CCN(C(=O)c2cccc3c2C(=O)N(Cc2cccnc2)C3)CC1 | inactive: 8.42% | –
31 | Cc1ccc2c(c1)NC(c1cccs1)C1=C(CC(C)(C)CC1=O)N2 (stereo not drawn) | inactive: -7.81% | –
32 | COc1ccc(OCC(=O)Nc2ccc3c(c2)nc(CCN2CCN(C)CC2)n3C)cc1 | – | inconclusive: 13.1 µM [inhibitor, single point]
33 | CCO[C@@H]1OC(C(=O)N2CCOCC2)=C[C@H](c2ccccc2)[C@H]1CCCO | – | inconclusive: 20.8 µM [inhibitor, single point]
34 | CN(C)S(=O)(=O)c1cccc(NC(=O)CCc2nc3sc4c(c3c(=O)[nH]2)CCCC4)c1 | – | inconclusive: 16.5 µM [inhibitor, single point]
35 | CC1=C(C(=O)N2CCCC(N3CCN(c4ccccc4C)CC3)C2)OCCO1 (stereo not drawn) | – | inconclusive: 7.38 µM [inhibitor, partial curve, poor fit]
36 | COc1ccc(-c2nnc(SCC(=O)NC(C)C)n2CC2CCCO2)cc1OC (stereo not drawn) | – | active: 3.29 µM
37 | CCCCCC(=O)Nc1ccc(S(=O)(=O)Nc2nccc(C)n2)cc1 | – | inconclusive: 9.28 µM [inhibitor, partial curve]
38 | COC(=O)C1CCN(C(=O)c2ccc3nccnc3c2)CC1 | – | inconclusive: 16.5 µM [inhibitor, single point]
39 | COc1ccccc1OCCCOc1c(C)cc(C)cc1Br | – | inconclusive: 2.08 µM [inhibitor, single point]
40 | CCCCN(C(=O)CSCC(=O)Nc1ccc(C)cc1)c1c(N)n(CC(C)C)c(=O)[nH]c1=O | inactive: -3.32% | –
41 | Cc1cc2nc(-c3ccco3)cc(C(F)(F)F)n2n1 | inactive: 5.22% | –
42 | O=[N+]([O-])c1cccc(CN2CCN(Cc3ccc(Cl)cc3)CC2)c1 | inactive: 0.112% | –
43 | O=C(Nc1ncc(Cc2ccccc2Cl)s1)c1ccc([N+](=O)[O-])cc1 | – | inconclusive: 18.5 µM [inhibitor, single point]

Another view of 3 compounds above:
Row	SMILES	activity change, negative = inhibition	Potency
30	O=C(c1ccco1)N1CCN(C(=O)c2cccc3c2C(=O)N(Cc2cccnc2)C3)CC1	inactive: 8.42%	–
31	Cc1ccc2c(c1)NC(c1cccs1)C1=C(CC(C)(C)CC1=O)N2 (stereo not drawn)	inactive: -7.81%	–
32	COc1ccc(OCC(=O)Nc2ccc3c(c2)nc(CCN2CCN(C)CC2)n3C)cc1	–	inconclusive: 13.1 µM [inhibitor, single point]
